# Measured values taken from the supplement of paper PMC8728848.
# The other results are listed elsewhere or left out.
# B1: Fap1 (Streptococcus parasanguis) (protein)
# chain: KATSKGTEEKQDSVRENLDKMISEAEVLNDMAARKLITLDAEQQLELMKSLVATQSQLEATKNLIGDPNATVADLQIAYTTLGNNTQALGNELIKLNPNGQIYAVLNNTEASRAATLRSTTTGTKTTFTISDFSNGGTQYYWAGGNANNLKNPISSISAVYDSATGKISWTVEYDPTTILKSPALKTLKTYTGIYIDTSSDSKLSTPTNVLIDGAATNPVTNFYGNGSKGIEYVSKGTTKGVTKHTITFDTAFSGRANDLADLEIKMLAATTLSDPHFYEDGSKGNYGRYNGQTAPYVIANDSGTAIGGYQVSGVNADSIPSDTT
# Columns and labels:
# Assay in all cases: glycan array binding signal (z-score within array); higher = stronger binding
# Conditions in all cases: glycan notation: IUPAC condensed, linker removed
# [1] = target: Gal(b1-4)GlcNAc(b1-6)GalNAc
# Outline: (§1)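 The binding signal is a Z-score computed within each array. Data were drawn from 3228 arrays in the Consortium for Functional Glycomics database, restricted to those with a known protein sequence. Scores were averaged over arrays of the same protein sequence at different concentrations or buffers, and over linkers, and negative values can be taken as non-binding.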
# [2] = target: Gal(b1-4)GlcNAc(b1-6)[Gal(b1-3)]GalNAc
# Outline: as §1
# [3] = target: Gal3S(b1-3)GalNAc
# Outline: as §1
# [4] = target: Gal3S(b1-3)GlcNAc
# Outline: as §1
# [5] = target: Gal3S(b1-3)[Fuc(a1-4)]GlcNAc
# Outline: as §1
# [6] = target: Gal3S(b1-4)Glc
# Outline: as §1
# [7] = target: Gal3S(b1-4)Glc6S
# Outline: as §1
# [8] = target: Gal3S(b1-4)GlcNAc
# Outline: as §1
# [9] = target: Gal3S(b1-4)GlcNAc6S
# Outline: as §1
# [10] = target: Gal3S(b1-4)[Fuc(a1-3)]Glc
# Outline: as §1
# [11] = target: Gal3S6S(b1-4)GlcNAc
# Outline: as §1
# [12] = target: Gal3S6S(b1-4)GlcNAc6S
# Outline: as §1
# [13] = target: Gal4S(b1-4)GlcNAc
# Outline: as §1
# [14] = target: Gal4S6S(b1-4)GlcNAc
# Outline: as §1
# [15] = target: Gal6S(b1-4)Glc
# Outline: as §1
# [16] = target: Gal6S(b1-4)Glc6S
# Outline: as §1
# [17] = target: Gal6S(b1-4)GlcNAc
# Outline: as §1
# [18] = target: GalNAc(a1-3)Gal
# Outline: as §1
# [19] = target: GalNAc(a1-3)GalNAc
# Outline: as §1
# [20] = target: GalNAc(b1-3)Gal(a1-4)Gal(b1-4)GlcNAc
# Outline: as §1
# [21] = target: GalNAc(b1-3)GalNAc
# Outline: as §1
# [22] = target: GalNAc(b1-4)GlcNAc
# Outline: as §1
# [23] = target: Glc(a1-4)Glc
# Outline: as §1
# [24] = target: Glc(a1-6)Glc(a1-6)Glc
# Outline: as §1
# [25] = target: Glc(b1-4)Glc
# Outline: as §1
# [26] = target: Glc(b1-6)Glc
# Outline: as §1
# [27] = target: GlcA(b1-3)Gal
# Outline: as §1
# [28] = target: GlcA(b1-6)Gal
# Outline: as §1
# [29] = target: GlcNAc(a1-3)Gal(b1-4)GlcNAc
# Outline: as §1
# [30] = target: GlcNAc(a1-6)Gal(b1-4)GlcNAc
# Outline: as §1
binder,measurement,setting,value
B1,glycan array binding signal (z-score),[1],0.546
same,glycan array binding signal (z-score),[2],-0.693
same,glycan array binding signal (z-score),[3],0.329
same,glycan array binding signal (z-score),[4],-0.277
same,glycan array binding signal (z-score),[5],0.104
same,glycan array binding signal (z-score),[6],0.082
same,glycan array binding signal (z-score),[7],0.88
same,glycan array binding signal (z-score),[8],-0.22
same,glycan array binding signal (z-score),[9],0.499
same,glycan array binding signal (z-score),[10],0.384
same,glycan array binding signal (z-score),[11],0.649
same,glycan array binding signal (z-score),[12],1.8
same,glycan array binding signal (z-score),[13],1.82
same,glycan array binding signal (z-score),[14],0.462
same,glycan array binding signal (z-score),[15],-0.414
same,glycan array binding signal (z-score),[16],-0.521
same,glycan array binding signal (z-score),[17],1.13
same,glycan array binding signal (z-score),[18],0.448
same,glycan array binding signal (z-score),[19],0.44
same,glycan array binding signal (z-score),[20],0.048
same,glycan array binding signal (z-score),[21],-0.059
same,glycan array binding signal (z-score),[22],0.043
same,glycan array binding signal (z-score),[23],0.228
same,glycan array binding signal (z-score),[24],-0.769
same,glycan array binding signal (z-score),[25],-0.611
same,glycan array binding signal (z-score),[26],-0.387
same,glycan array binding signal (z-score),[27],-0.181
same,glycan array binding signal (z-score),[28],-0.519
same,glycan array binding signal (z-score),[29],0.12
same,glycan array binding signal (z-score),[30],-0.16

# Part of the list above, with bars between the fields.
binder | measurement | setting | value
B1 | glycan array binding signal (z-score) | [15] | -0.414
same | glycan array binding signal (z-score) | [16] | -0.521
